Measurements published in publication PMC6478769.
No constants are given. Whether binding was seen depends on the method and setting. Binding seen in cells or lysates may run through a third protein. These calls come from enrichment with a bait or labelling near it, and not all partners need be listed.

Target: T1, endogenous chicken STING (chicken (endogenous in DF-1)) (UniProt E1C7U0)
T1 sequence: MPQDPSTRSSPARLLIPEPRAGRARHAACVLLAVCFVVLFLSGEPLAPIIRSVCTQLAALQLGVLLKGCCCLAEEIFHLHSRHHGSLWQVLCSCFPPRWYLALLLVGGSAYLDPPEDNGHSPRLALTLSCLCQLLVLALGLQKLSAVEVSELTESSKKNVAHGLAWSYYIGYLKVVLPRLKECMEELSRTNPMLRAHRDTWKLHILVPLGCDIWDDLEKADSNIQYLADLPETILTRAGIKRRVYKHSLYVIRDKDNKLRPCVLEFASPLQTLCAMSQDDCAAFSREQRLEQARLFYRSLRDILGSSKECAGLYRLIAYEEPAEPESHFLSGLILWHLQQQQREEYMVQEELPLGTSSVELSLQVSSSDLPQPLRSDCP
Experiment: affinity purification with mass spectrometry; endogenous Co-IP of chSTING followed by LC-MS/MS; no methods given

For endogenous chicken DDX3X, the binding was “binds”.
